Experimental data from publication PMC12670160, “A drug-repurposing screen of FDA- and EMA-approved drugs identifies two NF-κB inhibitors active against eumycetoma” (Journal of Antimicrobial Chemotherapy, 2025).
Structures can show the parent of a compound that is named as a salt. Hit rate of the full screen: of about 5,300 compounds, about 130 (2.5%) showed an effect of 50% or more. The list shows a part of the results.

Each molecule was assayed on M. mycetomatis strain mm55. Details: primary screen, metabolic activity vs growth control; 96 h, 2 µM; inhibitor.

Compound	% viability [%]
CC1(C)O[C@@H]2C[C@H]3[C@@H]4CCC5=CC(=O)CC[C@]5(C)[C@@]4(F)[C@@H](O)C[C@]3(C)[C@]2(C(=O)CCl)O1 [ONC0005110, halcinonide]	121
CCCCCCCCCCCCCCCC(=O)OC[C@H](COP(=O)([O-])OCC[N+](C)(C)C)OC(=O)CCCCCCCCCCCCCCC [ONC0003939, colfoscerilpalmitate]	68.76
N#Cc1ccc(COC[C@H]2O[C@@H](n3c(NCc4ccc(Cl)c(Cl)c4)nc4c(N)ncnc43)[C@H](O)[C@@H]2O)cc1 [ONC0003150, ver155008]	71.46
O=C(O)/C=C/c1c[nH]cn1 [ONC0003737, cisurocanicacid]	146.4
C[C@]12C=CC(=O)C=C1CC[C@H]1[C@@H]3C[C@@H](O)[C@](O)(C(=O)CO)[C@@]3(C)C[C@H](O)[C@@]12F [ONC0005317, triamcinolone]	97.58
COc1cccc(Nc2c(C(N)=O)cnc3c(C)cc(S(=O)(=O)c4cccc(C(=O)N(C)C)c4)cc23)c1 [ONC0004382, gsk256066]	115.4
Nc1c(CC(=O)O)cccc1C(=O)c1ccc(Br)cc1 [ONC0005181, bromfenac sodium]	92.06
OCCN1CCN(CCCN2c3ccccc3C=Cc3ccccc32)CC1 [ONC0002368, opipramol]	62.79
C=CCNc1nc(NCC=C)nc(N2CCN(C(c3ccc(F)cc3)c3ccc(F)cc3)CC2)n1 [ONC0003264, almitrine dimesilate]	84.51
COc1cc2c(cc1OCCCN1CCCC1)N=C(N)C21CCC1 [ONC0001507, a366]	112.1
CN1C(=O)OC(C)(C)C1=O [ONC0004222, trimethadione]	96.24
CC(=O)CCCCn1c(=O)c2c(ncn2C)n(C)c1=O [ONC0002382, pentoxifylline]	116.2
CC(C)NC[C@H](O)COc1cccc2ccccc12 [ONC0000523, dexpropranolol hydrochloride r]	63.41
O=C(O)CCCCC(CCSCc1ccccc1)SCc1ccccc1 (stereo not shown) [ONC0005053, cpi613]	152
CC1(C)CC[C@]2(C(=O)O)CC[C@]3(C)C(=CC[C@@H]4[C@@]5(C)CC[C@H](O)C(C)(C)[C@@H]5CC[C@]43C)[C@@H]2C1 [ONC0004932, oleanolic acid caryophyllin]	92.73
O=c1c(-c2ccc(O)cc2)coc2cc(O)ccc12 [ONC0001487, daidzein]	80.72
Cc1c(C(=O)Nc2ccc(N3CCC(N4CCOCC4)CC3)c(C#N)c2)cnn1-c1ccc(Cl)cc1 [ONC0004434, y320]	145.6
N[C@@H](Cc1cc(CP(=O)(O)O)cc(-c2ccccc2Cl)c1)C(=O)O [ONC0001567, sdz220581]	105.2
CC(C)=CCc1c(O)cc(O)c2c(=O)c(O)c(-c3ccc(C(F)(F)F)cc3)oc12 [ONC0001270, sng1153]	67.11
CC(C)(C)c1nc(-c2cccc(NS(=O)(=O)c3c(F)cccc3F)c2F)c(-c2ccnc(N)n2)s1 [ONC0005271, dabrafenib gsk2118436]	115.1

Compound	% viability [%]
CC[C@H](C(=O)N1CCCC[C@H]1C(=O)O[C@H](CCc1ccc(OC)c(OC)c1)c1cccc(OCC(=O)NCCNC(=O)COc2cccc([C@@H](CCc3ccc(OC)c(OC)c3)OC(=O)[C@@H]3CCCCN3C(=O)[C@@H](CC)c3cc(OC)c(OC)c(OC)c3)c2)c1)c1cc(OC)c(OC)c(OC)c1 [ONC0002247, rimiducid]	119.4
C[C@H]1O[C@@H](n2cc(F)c(=O)[nH]c2=O)[C@H](O)[C@@H]1O [ONC0000605, doxifluridine]	82.17
Cc1ccc(Nc2ncc3c(n2)N(C)C(=O)N(c2cc(NC(=O)c4cccc(C(F)(F)F)c4)ccc2C)C3)cn1 [ONC0003029, gnf7]	82.72
C[N+]1([O-])C2CCC1CC(OC(=O)C(CO)c1ccccc1)C2 (stereo not shown) [ONC0004212, atropine oxide]	82.92
CCN1CCCC(OC(=O)C(c2ccccc2)c2ccccc2)C1 (stereo not shown) [ONC0004204, piperidolate hydrochloride]	59.78
Nc1ccc(C(=O)O)cc1 [ONC0000284, potassium paminobenzoate]	77.48
O=C(O)C1=CO[C@@H](O[C@@H]2O[C@H](CO)[C@@H](O)[C@H](O)[C@H]2O)[C@@H]2C(CO)=CC[C@H]12 [ONC0004954, geniposidic acid]	64.57
CCCCCNC(=N)N/N=C/c1c[nH]c2ccc(OC)cc12 [ONC0003948, tegaserod maleate]	68.4
NS(=O)(=O)c1cc(Cl)c(Cl)c(S(N)(=O)=O)c1 [ONC0005275, dichlorphenamide diclofenamide]	137.6
CS(=O)(=O)c1ccc(-c2cnc(N)c(C(=O)Nc3ccccc3)n2)cc1 [ONC0004547, ve821]	76.73
COc1c(C)c2c(c(O)c1C/C=C(\C)CCC(=O)O)C(=O)OC2 [ONC0000625, mycophenolic acid]	92.92
O=C(Oc1ccccc1C(=O)O)c1ccccc1O [ONC0003314, salsalate]	76.16
O=C(O)c1ccc(S(=O)(=O)N(Cl)Cl)cc1 [ONC0000597, halazone]	77.44
CC[C@@]1(C2O[C@@H](C3O[C@@](O)(CO)[C@H](C)C[C@@H]3C)C[C@@H]2C)CC[C@H]([C@]2(C)CC[C@]3(C[C@H](O)[C@@H](C)[C@@H]([C@@H](C)[C@@H](OC)[C@H](C)C(=O)O)O3)O2)O1 (stereo partly shown) [ONC0004087, monensin sodium]	133.1
O=[N+]([O-])c1cn2c(n1)OC[C@@H](OCc1ccc(-c3ccc(OC(F)(F)F)cc3)nc1)C2 [ONC0001032, tba354]	76.09
O=C(NCCN1CCOCC1)c1ccc(Cl)cc1 [ONC0004576, moclobemide ro 111163]	83.02
O=C(c1ccc(CN2CCOCC2)cc1)N1CCN(C2CC2)CC1 [ONC0001030, bavisant dihydrochloride hydrate]	91.92
Cc1cc(Cl)ccc1OCCCC(=O)NO [ONC0004783, droxinostat]	69.65
Cc1ccc(-n2sc(=O)n(Cc3ccc(F)cc3)c2=O)cc1 [ONC0005259, ccg 50014]	100.7
[2H]C([2H])([2H])C(=O)Nc1c(I)c(C(=O)O)c(I)c(C(=O)NC)c1I [ONC0002149, iothalamic acidd3]	66.44

Retrieved by structure from the entries so far:
Compound	% viability [%]
CS(=O)(=O)c1ccc(-c2cnc(N)c(C(=O)Nc3ccccc3)n2)cc1 [ONC0004547, ve821]	76.73
Cc1cc(Cl)ccc1OCCCC(=O)NO [ONC0004783, droxinostat]	69.65

Carrying on.

Compound	% viability [%]
COc1cccc(OC)c1-c1cc(C(=O)N[C@@H](CC(C)C)C(=O)O)nn1-c1ccnc2cc(Cl)ccc12 [ONC0003540, tcntr117]	96.98
O=C(c1ccc(/C=C/c2n[nH]c3ccccc23)cc1)N1CCNCC1 [ONC0004863, kw 2449]	137.7
Cc1cccc(NC(=O)N[C@@H]2N=C(c3ccccc3)c3ccccc3N(CC(=O)c3ccccc3C)C2=O)c1 [ONC0005568, ym022]	88.21
C/C(=C\C(=O)Nc1ccccc1C(=O)O)c1ccc2ccccc2c1 [ONC0004705, bibr1532]	122.5
C=CCNC(=O)c1cc([N+](=O)[O-])cc2c(=O)[nH]c(Nc3ccc(Cl)c(Cl)c3)nc12 [ONC0001510, az10417808]	123.7
Cc1onc(-c2c(F)cccc2Cl)c1C(=O)N[C@@H]1C(=O)N2[C@@H]1SC(C)(C)[C@@H]2C(=O)O [ONC0005497, flucloxacillin]	108.2
C[C@H](Cc1cc2c(c(C(N)=O)c1)N(CCCO)CC2)NCCOc1ccccc1OCC(F)(F)F [ONC0004909, silodosin]	131.4
NS(=O)(=O)OC[C@@H]1C[C@@H](n2ccc3c(N[C@H]4CCc5ccccc54)ncnc32)C[C@@H]1O [ONC0001277, pevonedistat hydrochloride]	68.15
O=C(CNC(=O)c1cccc(C(F)(F)F)c1)N[C@@H]1CCN(Cc2ccc(Cl)cc2)C1 [ONC0002608, teijincompound1]	76.98
CCCC(CCC)C(=O)NCc1ccc2c(cnn2-c2ccccc2OC)c1 [ONC0004484, m25]	125.7
CN(C)CCCSC(=N)N [ONC0002709, dimaprit]	76.78
CN(C)CCOc1ccc(-c2nc(-c3ccncc3)c(-c3ccc4c(c3)CC/C4=N\O)[nH]2)cc1 [ONC0004948, sb590885]	61.96
NCCNCCNCCN [ONC0004085, trientine hydrochloride]	111.6
N=C(N)NCc1cccc(I)c1 [ONC0003466, iobenguane]	63.28
Cc1ccnc(NS(=O)(=O)c2ccc(N)cc2)n1 [ONC0000569, sulfamerazine]	86.54
O=C(CC12CC3CC(CC(C3)C1)C2)Nc1cccc2nc(NCCNCCO)ccc12 [ONC0000876, az10606120]	62.75
C[C@H]1NC(=O)NC1=O [ONC0002790, d5methylhydantoin]	119
CCC[S+]([O-])c1ccc2[nH]c(NC(=O)OC)nc2c1 (stereo not shown) [ONC0004848, albendazole oxide ricobendazole]	129
